For the data set, the system named is high-fat diet-induced obesity model mice. The data set is described as follows: Organ weight in mouse. The format is in vivo. The note with it: HPH-15 10 or 100 mg/kg, metformin 300 mg/kg, orally once a day 28 days; compared to olive oil. As for the experimental part:
The changes in organ weights when HPH-15 was administered were examined.
High-fat diet-induced obesity model mice were prepared in the same manner as in Example 7. Then, HPH-15 (10 mg/kg or 100 mg/kg, […]) dissolved in olive oil or metformin (300 mg/kg, […]) was orally administered once a day for 28 days. Olive oil alone was administered as a control. After 28 days of administration of each, the liver, muscle, subcutaneous fat, and epididymis of the high-fat diet-induced obesity model mice were excised and weighed.

As to `CC(C)(C)SCCNC(=S)c1cccc(C(=S)NCCSC(C)(C)C)n1` [HPH-15], the epididymis weight result is recorded as “no significant differences were observed”, the liver weight result was “no significant differences were observed” and the muscle weight entry was “no significant differences were observed”.

In the case of `CN(C)C(=N)N=C(N)N` [metformin, reference compound], the epididymis weight entry is reported as “no significant differences were observed”, the liver weight result is given as “no significant differences were observed” and the muscle weight entry was “no significant differences were observed”.

Values taken from patent US20260000655A1, “PHARMACEUTICAL COMPOSITION FOR USE IN PREVENTION OR TREATMENT OF LIFESTYLE-RELATED DISEASE” (priority 2022, published 2026).
